No constants are given. Whether binding was seen depends on the method and setting. Where a sequence is shown, tags or fusion partners need not be part of it.

This is an account of results in article PMC10617769, “Dietary potassium stimulates Ppp1Ca-Ppp1r1a dephosphorylation of kidney NaCl cotransporter and reduces blood pressure” (The Journal of Clinical Investigation, 2023).

This experiment addresses T1, GST fusion protein of the cytoplasmic amino terminus of rat NCC (amino acids 1-133) (rat) (UniProt P55018).
T1 sequence: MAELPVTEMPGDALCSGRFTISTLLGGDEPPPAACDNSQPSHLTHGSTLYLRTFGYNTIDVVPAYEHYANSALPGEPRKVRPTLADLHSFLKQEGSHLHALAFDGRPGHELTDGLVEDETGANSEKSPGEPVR
The experiment is described as follows: pull-down; GST-(N) NCC or GST alone on glutathione-agarose beads with 2–10 μg recombinant phosphatase; 12- to 18-hour incubation in PBS with 0.5 mM TCEP at 4°C; bound protein detected by Western blotting; both purified. In general terms: A western blot detects proteins with antibodies after separation by electrophoresis.

For the substance “recombinant calcineurin (PPP3CA) (from UniProt Q08209 1-521) (enzyme)”, the binding result is “no binding (tested: 2–10 μg)”.
